Test results from publication PMC6219568.
These are yes or no findings as the source states them, for the method shown. Some entries that bind do so weakly or less than the wild type.

The chains behind the UniProt entries cited, without tags or fusion partners. Residues count along the entry.
UniProt P98158, residues 26-4660: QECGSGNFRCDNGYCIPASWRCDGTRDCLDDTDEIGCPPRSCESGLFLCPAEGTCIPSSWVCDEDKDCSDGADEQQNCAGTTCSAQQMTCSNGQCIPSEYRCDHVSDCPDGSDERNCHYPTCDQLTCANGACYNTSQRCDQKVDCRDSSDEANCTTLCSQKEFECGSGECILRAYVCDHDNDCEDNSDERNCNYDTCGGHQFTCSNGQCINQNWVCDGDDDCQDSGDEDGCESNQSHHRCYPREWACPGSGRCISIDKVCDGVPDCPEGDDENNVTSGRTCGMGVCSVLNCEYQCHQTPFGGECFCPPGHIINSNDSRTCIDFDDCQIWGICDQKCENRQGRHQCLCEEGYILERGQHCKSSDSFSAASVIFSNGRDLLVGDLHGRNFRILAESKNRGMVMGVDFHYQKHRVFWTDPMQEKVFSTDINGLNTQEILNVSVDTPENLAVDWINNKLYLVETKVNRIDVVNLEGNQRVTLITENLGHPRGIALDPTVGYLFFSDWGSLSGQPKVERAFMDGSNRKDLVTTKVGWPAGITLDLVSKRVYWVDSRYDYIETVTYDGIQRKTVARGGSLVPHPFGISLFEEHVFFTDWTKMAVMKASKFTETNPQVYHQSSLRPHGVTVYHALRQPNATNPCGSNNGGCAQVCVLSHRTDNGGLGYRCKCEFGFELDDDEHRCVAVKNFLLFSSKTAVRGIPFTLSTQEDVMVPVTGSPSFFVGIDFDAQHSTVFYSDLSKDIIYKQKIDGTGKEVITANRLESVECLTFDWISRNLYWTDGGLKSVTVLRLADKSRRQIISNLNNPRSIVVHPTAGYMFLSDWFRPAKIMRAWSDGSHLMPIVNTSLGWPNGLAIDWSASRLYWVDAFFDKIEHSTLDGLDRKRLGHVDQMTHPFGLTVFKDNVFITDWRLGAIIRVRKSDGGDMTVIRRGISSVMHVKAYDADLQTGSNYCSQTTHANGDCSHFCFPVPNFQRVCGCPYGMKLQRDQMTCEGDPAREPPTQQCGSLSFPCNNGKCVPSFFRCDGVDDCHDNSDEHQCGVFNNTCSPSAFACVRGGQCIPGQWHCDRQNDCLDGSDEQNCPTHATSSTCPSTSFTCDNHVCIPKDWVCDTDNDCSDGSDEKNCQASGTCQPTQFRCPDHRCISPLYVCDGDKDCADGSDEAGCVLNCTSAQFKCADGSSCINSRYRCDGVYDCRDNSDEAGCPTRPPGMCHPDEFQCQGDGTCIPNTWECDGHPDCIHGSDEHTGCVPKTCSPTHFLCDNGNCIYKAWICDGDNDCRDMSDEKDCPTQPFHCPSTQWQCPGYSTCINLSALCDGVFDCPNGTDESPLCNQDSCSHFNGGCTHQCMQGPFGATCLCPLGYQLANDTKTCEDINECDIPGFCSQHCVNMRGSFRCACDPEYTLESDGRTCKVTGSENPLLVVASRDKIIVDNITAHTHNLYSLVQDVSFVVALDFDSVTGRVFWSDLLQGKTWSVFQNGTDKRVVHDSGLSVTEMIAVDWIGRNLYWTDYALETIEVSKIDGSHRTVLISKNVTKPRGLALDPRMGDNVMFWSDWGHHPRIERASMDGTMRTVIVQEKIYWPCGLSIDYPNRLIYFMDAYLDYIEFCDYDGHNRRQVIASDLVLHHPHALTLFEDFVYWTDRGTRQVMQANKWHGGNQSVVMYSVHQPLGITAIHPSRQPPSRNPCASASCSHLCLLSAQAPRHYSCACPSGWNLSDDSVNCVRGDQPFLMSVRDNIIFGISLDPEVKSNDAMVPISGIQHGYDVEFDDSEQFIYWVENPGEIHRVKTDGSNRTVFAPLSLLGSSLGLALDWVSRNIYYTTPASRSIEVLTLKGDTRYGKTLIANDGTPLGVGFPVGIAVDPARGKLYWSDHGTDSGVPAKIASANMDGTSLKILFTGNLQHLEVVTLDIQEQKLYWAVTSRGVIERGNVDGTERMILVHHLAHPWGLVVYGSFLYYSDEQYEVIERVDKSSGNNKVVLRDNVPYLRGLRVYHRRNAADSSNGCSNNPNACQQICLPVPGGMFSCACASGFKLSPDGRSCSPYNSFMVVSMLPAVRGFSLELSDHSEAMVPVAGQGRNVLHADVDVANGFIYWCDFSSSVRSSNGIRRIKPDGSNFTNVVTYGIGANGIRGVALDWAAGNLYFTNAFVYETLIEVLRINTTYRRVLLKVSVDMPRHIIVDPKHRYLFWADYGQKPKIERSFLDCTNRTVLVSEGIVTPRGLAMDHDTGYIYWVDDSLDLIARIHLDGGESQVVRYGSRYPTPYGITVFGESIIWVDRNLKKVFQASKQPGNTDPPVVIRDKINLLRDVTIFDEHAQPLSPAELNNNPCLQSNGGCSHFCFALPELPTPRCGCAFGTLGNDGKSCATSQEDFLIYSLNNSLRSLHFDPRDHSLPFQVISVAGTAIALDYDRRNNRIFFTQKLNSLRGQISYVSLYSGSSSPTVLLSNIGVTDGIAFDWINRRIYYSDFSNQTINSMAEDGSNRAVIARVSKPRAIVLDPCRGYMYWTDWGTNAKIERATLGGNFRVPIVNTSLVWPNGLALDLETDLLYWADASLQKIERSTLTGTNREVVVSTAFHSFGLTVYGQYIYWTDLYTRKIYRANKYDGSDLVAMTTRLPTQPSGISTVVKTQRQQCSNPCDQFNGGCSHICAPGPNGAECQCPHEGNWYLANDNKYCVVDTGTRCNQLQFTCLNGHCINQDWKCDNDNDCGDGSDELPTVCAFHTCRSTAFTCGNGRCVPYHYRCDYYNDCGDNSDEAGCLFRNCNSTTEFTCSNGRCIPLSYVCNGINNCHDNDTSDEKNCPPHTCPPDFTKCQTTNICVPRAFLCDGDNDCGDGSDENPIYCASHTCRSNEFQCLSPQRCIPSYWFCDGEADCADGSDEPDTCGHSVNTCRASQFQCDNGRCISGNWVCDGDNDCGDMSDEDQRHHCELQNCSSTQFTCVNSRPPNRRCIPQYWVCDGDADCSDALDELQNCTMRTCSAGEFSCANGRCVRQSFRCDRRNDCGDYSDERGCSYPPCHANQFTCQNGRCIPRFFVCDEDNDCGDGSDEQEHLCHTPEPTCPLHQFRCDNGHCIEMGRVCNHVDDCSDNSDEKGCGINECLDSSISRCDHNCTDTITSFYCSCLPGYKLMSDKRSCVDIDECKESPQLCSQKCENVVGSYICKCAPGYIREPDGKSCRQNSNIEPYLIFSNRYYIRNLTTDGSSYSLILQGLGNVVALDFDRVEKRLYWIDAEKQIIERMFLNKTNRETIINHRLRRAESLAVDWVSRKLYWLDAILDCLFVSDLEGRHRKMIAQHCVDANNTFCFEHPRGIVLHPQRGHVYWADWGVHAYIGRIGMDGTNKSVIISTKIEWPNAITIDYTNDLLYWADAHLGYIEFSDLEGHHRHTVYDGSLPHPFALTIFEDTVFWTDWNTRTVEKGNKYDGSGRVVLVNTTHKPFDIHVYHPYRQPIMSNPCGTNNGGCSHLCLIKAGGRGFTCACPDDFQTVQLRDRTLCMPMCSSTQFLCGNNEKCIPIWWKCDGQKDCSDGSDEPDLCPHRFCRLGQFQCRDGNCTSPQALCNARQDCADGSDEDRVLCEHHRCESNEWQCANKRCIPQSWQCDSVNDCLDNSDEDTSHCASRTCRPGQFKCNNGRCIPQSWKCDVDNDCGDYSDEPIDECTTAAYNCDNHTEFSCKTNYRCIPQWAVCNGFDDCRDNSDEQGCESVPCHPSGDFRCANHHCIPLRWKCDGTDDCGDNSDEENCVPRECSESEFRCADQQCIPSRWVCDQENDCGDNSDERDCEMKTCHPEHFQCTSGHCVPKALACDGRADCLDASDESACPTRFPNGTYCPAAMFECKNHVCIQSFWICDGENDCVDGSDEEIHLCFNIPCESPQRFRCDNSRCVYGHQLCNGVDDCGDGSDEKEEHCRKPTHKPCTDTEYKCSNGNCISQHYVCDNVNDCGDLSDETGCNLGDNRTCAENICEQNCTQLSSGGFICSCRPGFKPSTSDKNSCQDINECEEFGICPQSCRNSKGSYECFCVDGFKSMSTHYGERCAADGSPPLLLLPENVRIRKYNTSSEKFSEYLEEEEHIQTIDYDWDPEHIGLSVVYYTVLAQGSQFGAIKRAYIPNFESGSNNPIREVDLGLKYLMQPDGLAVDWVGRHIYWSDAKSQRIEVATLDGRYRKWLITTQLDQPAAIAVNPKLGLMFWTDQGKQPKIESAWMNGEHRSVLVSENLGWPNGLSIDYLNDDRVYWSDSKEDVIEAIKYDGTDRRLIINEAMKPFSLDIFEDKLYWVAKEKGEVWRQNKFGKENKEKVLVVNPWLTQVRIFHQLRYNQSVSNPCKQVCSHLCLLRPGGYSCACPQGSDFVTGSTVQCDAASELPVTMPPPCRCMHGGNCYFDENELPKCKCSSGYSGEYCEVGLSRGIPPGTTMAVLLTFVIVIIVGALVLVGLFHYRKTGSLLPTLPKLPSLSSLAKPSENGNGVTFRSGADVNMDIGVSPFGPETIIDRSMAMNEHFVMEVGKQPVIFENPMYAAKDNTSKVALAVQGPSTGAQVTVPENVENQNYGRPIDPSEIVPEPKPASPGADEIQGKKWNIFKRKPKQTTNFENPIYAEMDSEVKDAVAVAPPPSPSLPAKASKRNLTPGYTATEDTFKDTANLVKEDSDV
UniProt P02769, residues 25-607: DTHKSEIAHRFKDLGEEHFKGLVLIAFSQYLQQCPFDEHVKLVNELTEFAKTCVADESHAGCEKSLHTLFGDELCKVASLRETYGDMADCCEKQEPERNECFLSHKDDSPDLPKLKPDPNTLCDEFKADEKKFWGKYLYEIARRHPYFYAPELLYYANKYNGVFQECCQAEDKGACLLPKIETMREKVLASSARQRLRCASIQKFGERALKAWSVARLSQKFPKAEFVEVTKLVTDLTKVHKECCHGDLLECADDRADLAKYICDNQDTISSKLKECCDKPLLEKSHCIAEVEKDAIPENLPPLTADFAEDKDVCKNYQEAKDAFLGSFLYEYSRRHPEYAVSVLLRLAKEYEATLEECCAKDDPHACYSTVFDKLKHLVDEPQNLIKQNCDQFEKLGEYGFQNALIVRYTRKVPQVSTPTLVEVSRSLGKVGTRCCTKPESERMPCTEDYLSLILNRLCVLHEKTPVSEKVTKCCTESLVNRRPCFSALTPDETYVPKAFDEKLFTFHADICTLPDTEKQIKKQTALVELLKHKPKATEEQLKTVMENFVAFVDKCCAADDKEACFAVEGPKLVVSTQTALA
UniProt P15090: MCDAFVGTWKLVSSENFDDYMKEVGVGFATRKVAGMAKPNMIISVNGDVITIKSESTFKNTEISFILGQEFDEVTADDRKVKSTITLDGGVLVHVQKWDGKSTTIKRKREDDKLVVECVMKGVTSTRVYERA

How the values were obtained:
[1] = target: rat megalin (rat) (UniProt P98158); test: quartz-crystal microbalance (QCM); 27 MHz QCM (Affinix Q8); megalin (10 mg/mL in 10 mM HEPES pH 7.4, 150 mM NaCl, 2 mM CaCl2) or FA-free BSA immobilised on the sensor chips; FABP4 (1 mg/mL) injected into the chamber; binding read as change in frequency; both purified
[2] = target: FA-free BSA (bovine) (UniProt P02769); test: as above

binding [1]: binds | binding [2]: no binding (tested: 1 mg/ml)
Substance: Fatty acid binding protein 4 (recombinant human FABP4) (from UniProt P15090 1-132)
